Reference: paper doi:10.1101/2024.10.25.620210
Like-named read-outs stand apart in the source and are kept apart here. Results are given in words; binding and its absence hold for the method and conditions named. In cells and extracts the contact can be indirect. Some entries that bind do so weakly or less than the wild type. For some assays here: Sequences can lack the tags named with a protein.

Amino acid sequences for entries named in this document (tags omitted).
UniProt Q96524: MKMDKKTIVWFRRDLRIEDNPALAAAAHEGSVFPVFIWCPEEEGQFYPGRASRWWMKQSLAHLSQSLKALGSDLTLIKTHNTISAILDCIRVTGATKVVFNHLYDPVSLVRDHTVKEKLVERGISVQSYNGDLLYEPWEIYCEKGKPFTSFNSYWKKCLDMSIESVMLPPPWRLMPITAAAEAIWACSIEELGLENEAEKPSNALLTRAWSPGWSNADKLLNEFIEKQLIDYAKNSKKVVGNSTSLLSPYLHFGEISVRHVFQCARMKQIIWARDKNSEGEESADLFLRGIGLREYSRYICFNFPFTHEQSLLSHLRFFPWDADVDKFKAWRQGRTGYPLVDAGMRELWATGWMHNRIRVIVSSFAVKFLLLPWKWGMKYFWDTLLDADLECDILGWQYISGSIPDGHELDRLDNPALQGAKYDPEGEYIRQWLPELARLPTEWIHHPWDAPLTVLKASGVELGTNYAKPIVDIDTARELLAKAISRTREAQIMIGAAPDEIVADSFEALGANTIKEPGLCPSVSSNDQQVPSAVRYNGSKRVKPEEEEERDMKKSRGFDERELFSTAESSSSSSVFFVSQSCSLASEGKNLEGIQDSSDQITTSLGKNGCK
UniProt P93025: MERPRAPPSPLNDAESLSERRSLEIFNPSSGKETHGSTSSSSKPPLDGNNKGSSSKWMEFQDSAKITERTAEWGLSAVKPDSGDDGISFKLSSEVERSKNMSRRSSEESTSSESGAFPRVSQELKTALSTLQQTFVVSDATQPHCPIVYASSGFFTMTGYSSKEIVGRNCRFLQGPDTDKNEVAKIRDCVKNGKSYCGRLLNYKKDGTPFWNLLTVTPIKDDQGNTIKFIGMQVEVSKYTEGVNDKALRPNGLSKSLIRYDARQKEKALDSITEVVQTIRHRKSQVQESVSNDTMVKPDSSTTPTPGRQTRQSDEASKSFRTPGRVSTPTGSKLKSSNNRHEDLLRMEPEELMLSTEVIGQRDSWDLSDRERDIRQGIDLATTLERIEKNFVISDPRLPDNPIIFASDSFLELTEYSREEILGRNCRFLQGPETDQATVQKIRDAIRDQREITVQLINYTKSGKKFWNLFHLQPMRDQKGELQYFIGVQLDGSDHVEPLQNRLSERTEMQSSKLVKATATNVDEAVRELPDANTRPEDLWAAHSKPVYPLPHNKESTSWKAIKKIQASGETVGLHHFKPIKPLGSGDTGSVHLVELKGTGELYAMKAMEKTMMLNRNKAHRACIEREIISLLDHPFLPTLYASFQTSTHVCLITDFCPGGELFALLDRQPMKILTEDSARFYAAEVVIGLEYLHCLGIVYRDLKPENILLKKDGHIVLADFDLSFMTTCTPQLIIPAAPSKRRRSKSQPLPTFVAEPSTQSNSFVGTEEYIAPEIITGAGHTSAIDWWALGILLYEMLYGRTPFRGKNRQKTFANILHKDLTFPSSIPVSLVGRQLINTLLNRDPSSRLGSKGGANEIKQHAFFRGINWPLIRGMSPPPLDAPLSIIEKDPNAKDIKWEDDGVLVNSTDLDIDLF

T1: UVR8 split-YFP fusion (Arabidopsis thaliana) (UniProt Q9FN03)
T1 sequence: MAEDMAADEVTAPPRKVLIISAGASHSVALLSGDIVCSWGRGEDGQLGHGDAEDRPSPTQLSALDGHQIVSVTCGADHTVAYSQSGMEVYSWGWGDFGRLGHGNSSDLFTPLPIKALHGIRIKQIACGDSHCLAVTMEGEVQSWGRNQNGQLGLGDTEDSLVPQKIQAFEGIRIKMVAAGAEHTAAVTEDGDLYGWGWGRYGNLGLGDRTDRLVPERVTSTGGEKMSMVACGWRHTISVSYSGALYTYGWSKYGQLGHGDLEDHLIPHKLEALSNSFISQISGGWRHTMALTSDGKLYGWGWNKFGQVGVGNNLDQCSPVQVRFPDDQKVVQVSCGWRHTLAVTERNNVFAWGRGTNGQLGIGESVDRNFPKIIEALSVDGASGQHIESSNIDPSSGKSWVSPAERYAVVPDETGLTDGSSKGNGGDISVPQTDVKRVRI

T2: PHYA split-YFP fusion (Arabidopsis thaliana) (UniProt P14712)
T2 sequence: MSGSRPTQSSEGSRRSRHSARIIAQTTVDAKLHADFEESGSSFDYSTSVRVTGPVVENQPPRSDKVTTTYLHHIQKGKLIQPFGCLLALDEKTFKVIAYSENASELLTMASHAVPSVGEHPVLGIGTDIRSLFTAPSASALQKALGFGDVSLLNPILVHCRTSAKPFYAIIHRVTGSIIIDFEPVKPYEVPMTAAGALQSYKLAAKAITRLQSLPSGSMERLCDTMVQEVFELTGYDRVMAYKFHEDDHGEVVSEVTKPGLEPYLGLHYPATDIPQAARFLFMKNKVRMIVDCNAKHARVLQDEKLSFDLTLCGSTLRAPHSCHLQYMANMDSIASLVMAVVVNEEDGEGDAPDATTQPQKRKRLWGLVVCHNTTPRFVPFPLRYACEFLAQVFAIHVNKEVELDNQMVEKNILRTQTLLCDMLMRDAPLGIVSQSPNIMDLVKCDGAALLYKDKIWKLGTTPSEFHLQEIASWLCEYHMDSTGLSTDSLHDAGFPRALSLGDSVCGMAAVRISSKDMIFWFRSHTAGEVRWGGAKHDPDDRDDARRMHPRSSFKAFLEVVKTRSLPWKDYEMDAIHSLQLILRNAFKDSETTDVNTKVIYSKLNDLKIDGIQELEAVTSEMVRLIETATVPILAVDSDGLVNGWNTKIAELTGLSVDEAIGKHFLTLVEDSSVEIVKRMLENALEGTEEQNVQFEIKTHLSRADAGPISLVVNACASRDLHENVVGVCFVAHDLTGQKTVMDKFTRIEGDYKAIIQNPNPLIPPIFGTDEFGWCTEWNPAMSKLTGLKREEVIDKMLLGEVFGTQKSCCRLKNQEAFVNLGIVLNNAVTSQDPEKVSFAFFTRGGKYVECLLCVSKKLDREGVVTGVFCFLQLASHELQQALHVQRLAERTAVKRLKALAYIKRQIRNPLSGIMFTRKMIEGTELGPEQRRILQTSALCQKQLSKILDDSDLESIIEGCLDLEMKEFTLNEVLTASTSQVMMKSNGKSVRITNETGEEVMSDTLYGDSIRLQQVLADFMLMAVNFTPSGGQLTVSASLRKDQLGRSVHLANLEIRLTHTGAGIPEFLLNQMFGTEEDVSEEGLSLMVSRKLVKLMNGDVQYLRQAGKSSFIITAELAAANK

T3: PAP8 split-YFP fusion (BiFC of Figure 5d) (Arabidopsis thaliana) (UniProt Q9XI19)
T3 sequence: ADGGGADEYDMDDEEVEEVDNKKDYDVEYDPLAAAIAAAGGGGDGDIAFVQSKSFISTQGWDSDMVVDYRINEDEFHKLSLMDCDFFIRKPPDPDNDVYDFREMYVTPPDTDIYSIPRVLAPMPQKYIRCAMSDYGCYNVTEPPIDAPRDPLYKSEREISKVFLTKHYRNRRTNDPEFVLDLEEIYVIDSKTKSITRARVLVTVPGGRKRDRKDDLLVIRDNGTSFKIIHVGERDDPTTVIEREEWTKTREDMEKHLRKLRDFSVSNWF

B1: TIG split-YFP fusion (protein, UniProt Q8S9L5 78-547)
chain: AASPAVETSVKEDKLPADLKVTETVQANSSVKLSVEVPEIVCEDCYQRVLTEFMKLSKVPGFRPKTRVPENIIVGFVGRQYVLRATVESILKRTLPHAMESVTGRALKDSIQIVSSFPDMEKAYSKLKTLSYEVVVDVVPELKWNPEDGYKNMKVVVELGDEIDAKKACERQLRQKYKSLGALKIVTERGLQVGDLAVVDISATTIDEDGSTGQAIPDAESKGFHFDTEEGNRLLPGFLDAIIGIRAGESKSFTLVFPESWKQESLRGQRAQFTVDCKELFYRDLPTLDDSLADKLLPGCTTLKEVEETLAKRCQEMEQEAKEQATDNAILEQIRKMVEVEIPQSLFEEQGRQFYGARLLEIQGNMKLNEDQLASLSSQKAVNEFLETQRESITNIIKQNIAVGDIFKRENLEFSTDELVKEVENSISEFKKHKQEFDEERVKDQVQEILEGAKVLEWLKDRAEIQYITR
B2: EMB1144 split-YFP fusion (protein, UniProt P57720 51-436)
chain: TGSSYGTHFRVSTFGESHGGGVGCIIDGCPPRIPLTESDLQFDLDRRRPGQSRITTPRKETDTCRISSGVSEGMTTGTPIHVFVPNTDQRGLDYSEMSVAYRPSHADATYDMKYGVRSVQGGGRSSARETIGRVAPGALAKKILKQFAGTEILAYVSQVHHVVLPEELVDHENLTLEQIENNIVRCPNPEYAEKMIAAIDAVRTKGNSVGGVVTCIVRNAPRGLGTPVFDKLEAELAKACMSLPATKGFEFGSGFAGTFLTGLEHNDEFYTDENGRIRTRTNRSGGIQGGISNGEIINMRVAFKPTSTIGRKQNTVTRDKVETEMIARGRHDPCVVPRAVPMVEAMVALVLVDQLMAQYAQCHLFPINPELQEPLQIEQPQNATAL
B3: STIC2 split-YFP fusion (protein, UniProt O82230 49-182)
chain: VNGLFGGGNKDNNSEDGQSKAGIFGNMQNMYETVKKAQMVVQVEAVRVQKELAAAEFDGYCAGELVKVTLSGNQQPIRTDITEAAMELGSEKLSQLVTEAYKDAHAKSVVAMKERMSDLAQSLGMPPGLSEGMK
B4: LIN2 split-YFP fusion (protein, UniProt Q9LR75 49-386)
chain: VSIEKEVPETERPFTFLRDSDDVTPSSSSSSVRARFETMIRAAQDSVCDAIEAIEGGPKFKEDVWSRPGGGGGISRVLQDGNVFEKAGVNVSVVYGVMPPEAYRAAKGSASDQKPGPVPFFAAGVSSVLHPKNPFAPTLHFNYRYFETDAPKDVPGAPRQWWFGGGTDFTPAYIFEEDVKHFHSIQKQACDKFDPSFYPRFKKWCDDYFYIKHRDERRGLGGIFFDDLNDYDQEMLLSFATECANSVVPAYIPIVEKRKDMEFTEQHKAWQQLRRGRYVEFNLVYDRGTTFGLKTGGRIESILVSLPLSARWEYDHKPEEGTEEWKLLDACINPKEWI
B5: ΔcTP version of PAP5, split-YFP fusion (domain or fragment, UniProt F4IHY7 31-527)
chain: VKCGFPLKTLHAGITSRDRSLRHCIKCKKEDGDGDVSEGSKKSEEGFEYVTVERHPYHSYMDSTSGKLEPASGARASIPGEDYWPEGTSSRVRAARAPQPAGESSSFPSYGKNPGSRRKKNRKATEENVTVETNDEVSDSEDSSEEEENDSSDGFVTYKNEFEREEEETGFELDKKLGRPHPFIDPTKKKQIEKTLTSDESWWNWRKPEKEQWSRWQRRRPDVETVFLKAMAETGQVKLYGEEPTLTETSLYRARRHLFKEERLQAERERLAKEGPMAFYSEWVKAWKRDTSREAVQKHFEETGEDENTQLIEMFSHQTDREYRIMMGTDIRIKRDPLAMRMREDQIKQIWGGDPVYPTINYIQDPNAVMDFRGPDFHEPTPNMLSYLKENGKVISREMHEALLTKEKTEQLEVPDMDDAMAQAVDIGENDDDEDDADVEKDDEKVPRNWSVLKETPELRTAKPKPKKEGRMSLDEAVDDAENLTDFLMDFEEETDP
B6: ΔcTP version of PAP7, split-YFP fusion (domain or fragment, UniProt Q84JF5 63-483)
chain: ASEESSSSELETADPDFYKIGYVRSVRAYGVEFKEGPDGFGVYASKDIEPRRRARVIMEIPLELMITIRQKHPWMFFPDIVPIGHPIFDIINSTDPEIDWDIRLACLLLFSFDRDDHFWRLYGDFLPAADECSSLLLATEEDLAELQDPDLVSTIRQQQKRILDFWEKNWHSGVPLKIKRLAEDPERFIWAVSMAQTRCISMQTRVGALVQELNMMIPYADMLNHSFEPNCFLHWRPKDRMLEVMSNAGQDIKKGEEMTINYMPGQKNNMLMERYGFSTPVNPWDAIKFSGDSRIHLNSFLSVFNIYGLPEEYYHDSELSRGDTFVDGAVIAAARTLPTWSDIDLPPIPSAERKAVKELQDECRKMLAEYPTTAEQDQKLLDSMSEARTTFATAVKYRMHRKMFIGKIIKALDIYQERLLY
B7: ΔcTP version of PAP12, split-YFP fusion (domain or fragment, UniProt Q8VZV9 33-161)
chain: CGIQRDDNGRRVWRRRTLTKKDDMLRYKMQRVPFVEEQVRKIREVGKVMTMDIEQLLLREDNRFEFVNSVAAEATEYVDKNRDEYGGSKKAIFHVLSNRVNDLGFDRPEAYVEADPYKPGPGYLLEYYT

Legend:
Experiment in all cases: split reporter
[1] = biological target: T1, UVR8 split-YFP fusion (Arabidopsis thaliana)
[2] = biological target: CRY2 split-YFP fusion (Arabidopsis thaliana) (UniProt Q96524)
[3] = biological target: PHOT2 split-YFP fusion (Arabidopsis thaliana) (UniProt P93025)
[4] = biological target: T2, PHYA split-YFP fusion (Arabidopsis thaliana)
[5] = biological target: T3, PAP8 split-YFP fusion (BiFC of Figure 5d) (Arabidopsis thaliana)
[6] = biological target: CRY2 split-YFP fusion (Arabidopsis thaliana) (UniProt Q96524); remark: listed apart in the source

Row | Molecule | binding [5] | binding [6] | other results
1 | ΔcTP version of PAP8, split-YFP fusion (from UniProt Q9XI19 60-328) (domain or fragment) |  |  | binding [1]: binds; binding [2]: binds; binding [3]: binds; binding [4]: binds weakly
2 | B1 | binds |  | 
3 | B2 | binds |  | 
4 | B3 | binds |  | 
5 | B4 | binds |  | 
6 | B5 |  | binds | 
7 | B6 |  | binds | 
8 | B7 |  | binds | 
